In BigSolDB 2.1:

CC(C)c1c(C(=O)Nc2ccccc2)c(-c2ccccc2)c(-c2ccc(F)cc2)n1CC[C@@H](O)C[C@@H](O)CC(=O)[O-].CC(C)c1c(C(=O)Nc2ccccc2)c(-c2ccccc2)c(-c2ccc(F)cc2)n1CC[C@@H](O)C[C@@H](O)CC(=O)[O-].O.O.O.[Ca+2]
solubility (mole fraction)
Details	in acetone	in ethyl acetate	in isobutanol	in isobutyl acetate	in n-butanol	in n-butyl acetate	in n-octanol	in n-propanol	in water
293.15 K	0.0106	0.00164	0.000134	0.000141	0.000129	0.000609	5.8e-05	0.000204	1.9e-06
298.15 K	0.0121	0.00224	0.000155	0.000185	0.000183	0.000702	5.8e-05	0.000264	2.1e-06
303.15 K	0.0134	0.0029	0.000238	0.00029	0.000264	0.000891	9.4e-05	0.000379	2.2e-06
308.15 K	0.0161	0.00359	0.00036	0.000426	0.000389	0.00116	0.000135	0.000533	2.3e-06
313.15 K	0.0192	0.00415	0.000521	0.00068	0.000574	0.00154	0.000197	0.000735	2.4e-06
318.15 K	0.0227	0.00461	0.000776	0.00103	0.000865	0.00206	0.000263	0.00103	2.8e-06
323.15 K	0.0259	0.00513	0.000976	0.00143	0.00121	0.00273	0.000423	0.0014	3.3e-06
328.15 K	0.0297	0.00571	0.00121	0.00196	0.00162	0.00362	0.000638	0.00177	3.9e-06
